Results deposited as PubChem BioAssay AID1259308 (NCATS, 2017).
In all, the deposit lists about 59,000 reagents; this is a random part of them. About 1,510 of all reagents (2.6%) were called active. 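Calls use total luciferase alone and ignore viability, so some active siRNAs may act by altering cell number.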 The numbers tell different reagents against one gene apart. Further read-outs or replicates are left out here.

Test: 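Knock-downs that increase output of a recombinant reporter protein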 (primary screen)
Cells: human HEK293 embryonic kidney cells stably expressing firefly luciferase (HEK-CMV-Luc2-Hygro)
Reagents: single siRNA against human genes, 0.8 pmol siRNA per well
Time to read-out: 72 h
Detection: 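Reporter luminescence and viable-cell signal on separate replicate plates, given as percent of non-targeting control and median/MAD z-scores, plus per-cell luciferase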
Reading the numbers: total luciferase, z-score: higher = more reporter protein produced
Call rule: 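An siRNA counts as active if its total luciferase robust z-score exceeds 3; genes with two or more such siRNAs out of three were retested with fresh siRNAs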
Calls: active = raised luciferase; inactive = no rise

RPS6KA6 #1
- total luciferase, z-score: -0.339
- activity call: inactive

RPS6KA6 #2
- total luciferase, z-score: 0.802
- activity call: inactive

RPS6KA6 #3
- total luciferase, z-score: 0.292
- activity call: inactive

PHC3 #1
- total luciferase, z-score: 0.0126
- activity call: inactive

PHC3 #2
- total luciferase, z-score: -1.36
- activity call: inactive

PHC3 #3
- total luciferase, z-score: -1.4
- activity call: inactive

CCDC83 #1
- total luciferase, z-score: -0.47
- activity call: inactive

CCDC83 #2
- total luciferase, z-score: -0.809
- activity call: inactive

CCDC83 #3
- total luciferase, z-score: -0.304
- activity call: inactive

ABHD16A #1
- total luciferase, z-score: 0.754
- activity call: inactive

ABHD16A #2
- total luciferase, z-score: 1
- activity call: inactive

ABHD16A #3
- total luciferase, z-score: 0.161
- activity call: inactive

Reformatted: 3 of the entries above
{"Gene":"ABHD16A","reagent no.":1,"total luciferase, z-score":0.754,"activity call":"inactive"}
{"Gene":"ABHD16A","reagent no.":2,"total luciferase, z-score":1,"activity call":"inactive"}
{"Gene":"ABHD16A","reagent no.":3,"total luciferase, z-score":0.161,"activity call":"inactive"}

The list goes on:
MRPL27 #1
- total luciferase, z-score: 0.452
- activity call: inactive

MRPL27 #2
- total luciferase, z-score: -1.32
- activity call: inactive

MRPL27 #3
- total luciferase, z-score: -0.448
- activity call: inactive

WDR24 #1
- total luciferase, z-score: 0.464
- activity call: inactive

WDR24 #2
- total luciferase, z-score: 1.25
- activity call: inactive

WDR24 #3
- total luciferase, z-score: -1.12
- activity call: inactive

SERPINA12 #1
- total luciferase, z-score: 1.86
- activity call: inactive

SERPINA12 #2
- total luciferase, z-score: -0.505
- activity call: inactive

SERPINA12 #3
- total luciferase, z-score: -0.317
- activity call: inactive

CHMP1A #1
- total luciferase, z-score: 0.274
- activity call: inactive

CHMP1A #2
- total luciferase, z-score: -1.3
- activity call: inactive

CHMP1A #3
- total luciferase, z-score: 1.14
- activity call: inactive

PCDHB2 #1
- total luciferase, z-score: -0.395
- activity call: inactive

PCDHB2 #2
- total luciferase, z-score: -0.871
- activity call: inactive

PCDHB2 #3
- total luciferase, z-score: -1.19
- activity call: inactive

RGL3 #1
- total luciferase, z-score: 0.385
- activity call: inactive

RGL3 #2
- total luciferase, z-score: 0.78
- activity call: inactive

RGL3 #3
- total luciferase, z-score: 1.23
- activity call: inactive

TENM2 #1
- total luciferase, z-score: 0.199
- activity call: inactive

TENM2 #2
- total luciferase, z-score: -0.28
- activity call: inactive

TENM2 #3
- total luciferase, z-score: -0.199
- activity call: inactive
